These are yes or no findings as the source states them, for the method shown. Binding seen in cells or lysates may run through a third protein. Binding can be weak; no strength is given. Sequences can lack the tags named with a protein.

The assay concerns the target Pbl fused with HA epitope (Pbl::HA) (Drosophila (fly)). Description: co-IP; S2 cell lysates transfected with control DNA, HA::Pbl, or HA::Pbl and Par6::FLAG; 5 ug anti-HA or anti-Flag antibody, Protein A/G magnetic beads; western blot with anti-Flag, anti-aPKC or anti-HA. (In general: Immunoblotting shows a protein as a band on a membrane.)

B1: Par-6 fused with Flag epitope (Par6::Flag) (protein, UniProt O97111 1-351)
chain: MSKNKINTTSATAASDTNLIEVKSKFDAEFRRWSFKRNEAEQSFDKFASLIEQLHKLTNIQFLILYIDPRDNDLLPINNDDNFGRALKTARPLLRVIVQRKDDLNEYSGFGTMKPRNLIGSILMGHTPVKTKAPSISIPHDFRQVSAIIDVDIVPETHRRVRLLKHGSDKPLGFYIRDGTSVRVTASGLEKQPGIFISRLVPGGLAESTGLLAVNDEVIEVNGIEVAGKTLDQVTDMMVANSSNLIITVKPANQRTLTSTHRGSFSRNSQLSSGSHHTNNTNTSDEIEHDDQDDIVDLTGVTLDESPTSTSAGNHNHQPPLSSSPSSHHQQAASNASTIMASDVKDGVLHL
As for B1, the binding entry is on record as “binds”.

These data come from publication PMC4359025.
